Assay [1] addresses T1, Rb (full-length, cotransfected) (UniProt P06400).
T1 sequence: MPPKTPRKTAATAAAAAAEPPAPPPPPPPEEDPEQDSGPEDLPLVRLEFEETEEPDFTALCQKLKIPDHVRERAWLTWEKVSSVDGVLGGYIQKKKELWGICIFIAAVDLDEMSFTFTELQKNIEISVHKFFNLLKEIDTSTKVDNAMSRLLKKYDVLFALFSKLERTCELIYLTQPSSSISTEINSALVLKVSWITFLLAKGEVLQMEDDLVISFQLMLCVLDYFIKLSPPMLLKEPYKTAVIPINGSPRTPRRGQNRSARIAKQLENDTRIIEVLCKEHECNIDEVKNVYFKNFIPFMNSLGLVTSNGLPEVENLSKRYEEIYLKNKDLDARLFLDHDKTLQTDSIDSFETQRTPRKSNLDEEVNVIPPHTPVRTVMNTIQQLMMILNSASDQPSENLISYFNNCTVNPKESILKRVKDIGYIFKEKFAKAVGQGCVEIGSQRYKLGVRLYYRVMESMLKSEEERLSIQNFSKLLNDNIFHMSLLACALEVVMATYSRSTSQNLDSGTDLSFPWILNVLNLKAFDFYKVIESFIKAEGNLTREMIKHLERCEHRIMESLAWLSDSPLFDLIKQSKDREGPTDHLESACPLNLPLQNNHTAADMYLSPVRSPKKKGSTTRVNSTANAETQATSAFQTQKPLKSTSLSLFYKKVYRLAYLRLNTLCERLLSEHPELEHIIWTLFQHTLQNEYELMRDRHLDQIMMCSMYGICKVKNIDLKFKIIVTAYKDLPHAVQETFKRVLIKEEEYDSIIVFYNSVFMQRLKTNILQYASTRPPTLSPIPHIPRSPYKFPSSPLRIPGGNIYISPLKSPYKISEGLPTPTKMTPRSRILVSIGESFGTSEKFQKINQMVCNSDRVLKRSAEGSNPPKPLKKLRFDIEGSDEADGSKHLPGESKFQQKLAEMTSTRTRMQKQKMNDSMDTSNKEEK
Description: co-IP; HEK293T cells cotransfected with Rb and HA-tagged E2F; NP40 buffer lysate; Rb IP, western blot with anti-HA.

By UniProt entry, the sequences of proteins in these tests, tags left out.
UniProt O35261: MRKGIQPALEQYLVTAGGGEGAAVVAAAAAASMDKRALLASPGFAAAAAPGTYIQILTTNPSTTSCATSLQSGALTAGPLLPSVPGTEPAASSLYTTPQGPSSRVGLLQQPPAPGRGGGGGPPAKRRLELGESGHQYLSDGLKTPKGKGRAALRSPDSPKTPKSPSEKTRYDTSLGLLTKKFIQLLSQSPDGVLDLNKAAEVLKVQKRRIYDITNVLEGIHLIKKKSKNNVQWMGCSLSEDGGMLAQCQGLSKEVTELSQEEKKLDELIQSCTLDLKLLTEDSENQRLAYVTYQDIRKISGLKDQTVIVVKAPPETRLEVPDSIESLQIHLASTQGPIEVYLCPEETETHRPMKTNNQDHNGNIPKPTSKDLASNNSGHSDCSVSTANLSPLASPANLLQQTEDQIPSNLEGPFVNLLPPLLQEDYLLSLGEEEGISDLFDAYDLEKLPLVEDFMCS
UniProt Q14209: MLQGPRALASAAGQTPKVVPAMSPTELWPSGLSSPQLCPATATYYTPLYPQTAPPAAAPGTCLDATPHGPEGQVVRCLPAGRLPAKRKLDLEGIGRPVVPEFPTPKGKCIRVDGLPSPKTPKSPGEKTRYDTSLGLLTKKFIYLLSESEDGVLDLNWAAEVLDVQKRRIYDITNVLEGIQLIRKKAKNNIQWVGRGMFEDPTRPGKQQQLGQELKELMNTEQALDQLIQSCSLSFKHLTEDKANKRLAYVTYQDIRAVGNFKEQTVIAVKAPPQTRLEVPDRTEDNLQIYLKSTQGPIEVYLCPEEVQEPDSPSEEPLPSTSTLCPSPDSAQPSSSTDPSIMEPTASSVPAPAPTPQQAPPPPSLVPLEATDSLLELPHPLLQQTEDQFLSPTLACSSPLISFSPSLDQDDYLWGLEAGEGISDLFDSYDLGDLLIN

For assay [2], the target named is endogenous mouse E2F3 (WT MEFs) (mouse (endogenous in MEFs)) (UniProt O35261). Description: co-IP; endogenous proteins in WT or E2F3 LQ/LQ MEF whole cell lysates; E2F3 IP, immunoblot of Rb.

These are yes or no findings as the source states them, for the method shown. In cells and extracts the contact can be indirect. Some binding calls cover weakened binding; strength is not graded here.

In paper PMC5623693, “Rb‐independent E2F3 promotes cell proliferation and alters expression of genes involved in metabolism and inflammation” (FEBS Open Bio, 2017) one finds binding data, which are given here for two molecules.

Take “HA-tagged full-length human E2F2 (WT) (from UniProt Q14209 1-437)”: the binding result in assay [1] is recorded as “binds”.

B1: endogenous mouse pRb (MEFs) (protein, UniProt P13405 1-921)
chain: MPPKAPRRAAAAEPPPPPPPPPREDDPAQDSGPEELPLARLEFEEIEEPEFIALCQKLKVPDHVRERAWLTWEKVSSVDGILEGYIQKKKELWGICIFIAAVDLDEMPFTFTELQKSIETSVYKFFDLLKEIDTSTKVDNAMSRLLKKYNVLCALYSKLERTCELIYLTQPSSALSTEINSMLVLKISWITFLLAKGEVLQMEDDLVISFQLMLCVVDYFIKFSPPALLREPYKTAAIPINGSPRTPRRGQNRSARIAKQLENDTRIIEVLCKEHECNIDEVKNVYFKNFIPFINSLGIVSSNGLPEVESLSKRYEEVYLKNKDLDARLFLDHDKTLQTDPIDSFETERTPRKNNPDEEANVVTPHTPVRTVMNTIQQLMVILNSASDQPSENLISYFNNCTVNPKENILKRVKDVGHIFKEKFANAVGQGCVDIGVQRYKLGVRLYYRVMESMLKSEEERLSIQNFSKLLNDNIFHMSLLACALEVVMATYSRSTLQHLDSGTDLSFPWILNVLNLKAFDFYKVIESFIKVEANLTREMIKHLERCEHRIMESLAWLSDSPLFDLIKQSKDGEGPDNLEPACPLSLPLQGNHTAADMYLSPLRSPKKRTSTTRVNSAANTETQAASAFHTQKPLKSTSLALFYKKVYRLAYLRLNTLCARLLSDHPELEHIIWTLFQHTLQNEYELMRDRHLDQIMMCSMYGICKVKNIDLKFKIIVTAYKDLPHAAQETFKRVLIREEEFDSIIVFYNSVFMQRLKTNILQYASTRPPTLSPIPHIPRSPYKFSSSPLRIPGGNIYISPLKSPYKISEGLPTPTKMTPRSRILVSIGESFGTSEKFQKINQMVCNSDRVLKRSAEGGNPPKPLKKLRFDIEGADEADGSKHLPAESKFQQKLAEMTSTRTRMQKQRMNESKDVSNKEEK
Take B1: in assay [2], the binding entry is recorded as “binds”.
